The subject of this assay is HCoV-229E. Further details: species or system Huh-7; HTS, protection from HCoV-229E induced cell death, luminescent cell viability (CellCounting-Lite 2.0), inhibition rate. The note with it: 24 h post infection, 1 h compound pre-incubation, 10 µM, inhibitor.

These results are taken from article PMC12431657, “Discovery and mechanistic insights of dibenzoylmethane as a broad spectrum inhibitor of coronavirus” (PLOS Pathogens, 2025).

Read-outs that look alike come from different tables or passages of the source. The campaign covered roughly 3,300 compounds. About 95 (3%) showed an effect of 50% or more. The list shows a part of the results. Peptide text beside a SMILES is read from it.

Regarding `COc1cc2oc(-c3ccccc3)cc(=O)c2c(OC)c1OC` [5,6,7-Trimethoxyflavone], the “229E Inhibition rate” value was determined as 28.5%.

In the case of `COc1c(O[C@@H]2O[C@H](C(=O)O)[C@@H](O)[C@H](O)[C@H]2O)cc(O)c2c(=O)cc(-c3ccccc3)oc12` [Wogonoside], the “229E Inhibition rate” value is 11.8%.

`CC(C)(N)C(=O)O` [NSC 16590]: the “229E Inhibition rate” value is listed as 10.2%.

As for `CCCCCC/C=C\CCCCCCCC(=O)OC` [Methyl palmitoleate], the “229E Inhibition rate” value is on record as 6.5%.

`Cc1ncc(COP(=O)(O)O)c(C=O)c1O` [Pyridoxal phosphate]: the “229E Inhibition rate” value (229E Inhibition rate, 24 h) amounted to 10%.

As for `NC(=O)c1ccc[n+]([C@@H]2O[C@H](COP(=O)([O-])O)[C@@H](O)[C@H]2O)c1` [β-Nicotinamide mononucleotide], the “229E Inhibition rate” value was determined as 11.5%.

As to `O=C(O)c1cc(O)c2c(c1)[C@H]([C@H]1c3cc(C(=O)O)cc(O)c3C(=O)c3c(O[C@@H]4O[C@H](CO)[C@@H](O)[C@H](O)[C@H]4O)cccc31)c1cccc(O[C@@H]3O[C@H](CO)[C@@H](O)[C@H](O)[C@H]3O)c1C2=O` [Sennoside A], the “229E Inhibition rate” value is 31.3%.

Regarding `CNCC(O)c1ccc(O)cc1` (centres unmarked) [p-Synephrine], the “229E Inhibition rate” value (229E Inhibition rate, 24 h) is 16.1%.

With `Nc1nc2ncc([C@H](O)[C@H](O)CO)nc2c(=O)[nH]1` [Neopterin], the “229E Inhibition rate” value stood at 8.8%.

Turning to `CCCCCC1=C(C)CCC1=O` [Dihydrojasmone], the “229E Inhibition rate” value was 40.7%.

In the case of `CC1(C)CC[C@]2(C)CC[C@]3(C)C(=CC[C@@H]4[C@@]5(C)CC[C@@H](O)[C@](C)(C(=O)O)[C@@H]5CC[C@]43C)[C@@H]2C1` [alpha-Boswellic acid], the “229E Inhibition rate” value is listed as 14%.

For `C[C@@H]1C(=O)O[C@H]2C[C@@]34[C@H]5C[C@@H](C(C)(C)C)[C@]36[C@@H](OC(=O)[C@@H]6O)O[C@@]4(C(=O)O5)[C@]21O` [Ginkgolide A], the “229E Inhibition rate” value worked out at 11.6%.

As for `CC[C@H](C)[C@H](N)C(=O)N[C@@H](C)C(=O)N[C@@H](CCCN=C(N)N)C(=O)N[C@@H](CCCN=C(N)N)C(=O)N[C@@H](Cc1cnc[nH]1)C(=O)N1CCC[C@H]1C(=O)N[C@@H](Cc1ccc(O)cc1)C(=O)N[C@@H](Cc1ccccc1)C(=O)N[C@@H](CC(C)C)C(=O)O` [Kinetensin] (H-IARRHPYFL-OH), the “229E Inhibition rate” value was 56.1%.

As for `CC1(C)CC[C@]2(C(=O)O)CC[C@]3(C)C(=CC[C@@H]4[C@@]5(C)CC[C@H](O[C@@H]6O[C@H](C(=O)O)[C@@H](O[C@@H]7O[C@@H](CO)[C@H](O)[C@H]7O)[C@H](O)[C@H]6O)C(C)(C)[C@@H]5CC[C@]43C)[C@@H]2C1` [Tarasaponin VI], the “229E Inhibition rate” value is 4.4%.
